# The list is a part of this screen's results and no random one: it is rich in T/C values a quarter to a half above the control, in often repeated tests (any T/C) and in doses without a T/C. Further doses and runs are listed elsewhere. T/C: endpoint of the treated group in % of that of the vehicle group. Some entries give survivors of the animals treated and no T/C: the source files T/C as zero there, which appears to mark a toxic dose or a test without result, not a measured value. Some doses without a T/C left all or most animals alive at the check, yet need not have been tolerated: survival well below the control is almost never listed, so the zero probably covers shortened survival too. Survivors were counted at the toxicity check, usually on the fifth day, unless a day is given; later deaths do not show. Schedule codes are those of the source, taken here to give the interval after Q, in days (D) or hours (H), and the number of doses after X. Some doses were run more than once; their values stand side by side, smallest first. Some molecules as drawn cover several salts, stereoisomers or complexes of the source; a dose is that of the sample tested. For survival time, this PubChem deposit counts one and a half times the control or more as active, and values a quarter to a half above the control carry no call in these data; other NCI protocols may use other cut-offs. Some T/C values are followed by the survivors on the day toxicity was checked, most often the fifth; where none is given, no animal had died by that day. Additions like (4×) say how often a value occurs here. Starred links: 1 amine or outer side, 2 acyl side, 3 side chain; linkers in the order of their positions; H or OH if unused. Positions of bridges follow the written chain, without caps; N, C: chain ends. Non-standard residues stand in square brackets, D forms with d. Residues, ends and D or L forms follow the SMILES beside them. Chains are numbered I, II in the order given. Actinocin(9to1) = Cc1c2oc3c(C)ccc(C(=O)[*:1])c3nc-2c(C(=O)[*:2])c(N)c1=O; aThr = C[C@H](O)[C@H](N)C(=O)O; NMeV = CN[C@H](C(=O)O)C(C)C; Sar = CNCC(=O)O
# System: BDF1 mice, P288 methotrexate-resistant leukemia, survival T/C
# Test: NCI In Vivo Anticancer Drug Screen. Data for tumor model P288 Lymphocytic Leukemia resistant to methotrexate; NSC 740 (intraperitoneal) in B6D2F1 (BDF1) mice
# Conditions: T/C endpoint: median survival time, schedule: Q01DX010 (ip), higher T/C = longer survival
# Method: The antitumor activity of compounds was measured in mice bearing transplantable tumors. Survival or tumor size were measured and the results are expressed as the measurement made in the treated group (T) divided by the measurement made in the vehicle treated control group (C). The tumor model used in this assay is P288 Lymphocytic Leukemia resistant to methotrexate; NSC 740 (intraperitoneal) in B6D2F1 (BDF1) mice
# [1] = dose: 12.5 mg/kg/injection, vehicle: saline
# [2] = dose: 25.0 mg/kg/injection, vehicle: saline
# [3] = dose: 100.0 mg/kg/injection, vehicle: saline
# [4] = dose: 120.0 mg/kg/injection, vehicle: saline
# [5] = dose: 50.0 mg/kg/injection, vehicle: saline
# [6] = dose: 2.5 mg/kg/injection, vehicle: saline
# [7] = dose: 5.0 mg/kg/injection, vehicle: saline
# [8] = dose: 40.0 mg/kg/injection, vehicle: saline
# [9] = dose: 80.0 mg/kg/injection, vehicle: saline
# [10] = dose: 200.0 mg/kg/injection, vehicle: saline
# [11] = dose: 400.0 mg/kg/injection, vehicle: saline
# [12] = dose: 20.0 mg/kg/injection, vehicle: saline
# [13] = dose: 10.0 mg/kg/injection, vehicle: saline
# [14] = dose: 1.0 mg/kg/injection, vehicle: saline
# [15] = dose: 2.0 mg/kg/injection, vehicle: saline
# [16] = dose: 16.0 mg/kg/injection, vehicle: saline
# [17] = dose: 18.0 mg/kg/injection, vehicle: saline
# [18] = dose: 27.0 mg/kg/injection, vehicle: saline
compound,measurement,setting,value
COS(C)(=O)=O,survivor count,[1],6 of 6
same,survivor count,[2],6 of 6
same,survivor count,[3],5 of 6
N#CCSc1ncnc2nc[nH]c12,survivor count,[4],6 of 6
same,survivor count,"dose: 240.0 mg/kg/injection, vehicle: saline",0 of 6
[I][Hg][CH2]C1COC([CH2][Hg][I])CO1 (centres undefined),survivor count,[1],6 of 6
same,survivor count,[5],5 of 6
same,survivor count,[3],5 of 6
Oc1cc(CN(CCCl)CCCl)c(O)cc1CN(CCCl)CCCl,T/C,"dose: 1.25 mg/kg/injection, vehicle: saline",131 % of control
same,T/C,[6],131 and 142 % of control
same,T/C,[7],145 % of control
Nc1nc2n[nH]nc2c(=O)[nH]1,T/C,"dose: 50.0 mg/kg/injection, vehicle: alkali diluted with saline",130 % of control
same,T/C,"dose: 100.0 mg/kg/injection, vehicle: alkali diluted with saline",137 and 140 % of control
same,T/C,"dose: 200.0 mg/kg/injection, vehicle: alkali diluted with saline",125 and 140 % of control [5 of 6 alive]
same,T/C,"dose: 400.0 mg/kg/injection, vehicle: alkali diluted with saline",129 % of control [5 of 6 alive]
"Cc1c2oc3c(C)ccc(C(=O)N[C@@H]4C(=O)N[C@H](C(C)C)C(=O)N5CCC[C@H]5C(=O)N(C)CC(=O)N(C)[C@@H](C(C)C)C(=O)O[C@H]4C)c3nc-2c(C(=O)N[C@@H]2C(=O)N[C@H](C(C)C)C(=O)N3CCC[C@H]3C(=O)N(C)CC(=O)N(C)[C@@H](C(C)C)C(=O)O[C@H]2C)c(N)c1=O (I: [aThr][dV]P[Sar][NMeV] / II: [aThr][dV]P[Sar][NMeV]; ester I:1-I:C, II:1-II:C; linker I:N-II:N via Actinocin(9to1))",T/C,"dose: 12.5 micrograms/kg/injection, vehicle: other",135 % of control [5 of 6 alive]
same,T/C,"dose: 100.0 micrograms/kg/injection, vehicle: other",125 % of control
CCOC(=O)c1[nH]c2ccccc2c1CN(CCCl)CCCl,T/C,[8],126 % of control
same,survivor count,[9],0 of 6
CC(=O)Nc1ccc2nc3ccc(NC(C)=O)cc3[n+](-c3ccccc3)c2c1,T/C,[5],127 % of control
same,T/C,[3],125 and 131 % of control
same,T/C,[10],140 % of control
same,T/C,[11],125 % of control
same,survivor count,[11],6 of 6
C[C@H]1C(=O)O[C@@H]2CCN3CC=C(COC(=O)[C@](C)(O)[C@@]1(C)O)[C@H]23,survivor count,[1],6 of 6
C[C@@H]1C[C@@H]([C@H](O)CC2CC(=O)NC(=O)C2)C(=O)[C@@H](C)C1,T/C,[12],131 % of control
same,T/C,[8],125 % of control
O=C(Nc1ccc(C2=NCCN2)cc1)c1ccc(C(=O)Nc2ccc(C3=NCCN3)cc2)c([N+](=O)[O-])c1,T/C,"dose: 6.0 mg/kg/injection, vehicle: saline",135 % of control
CSc1ncnc2nc[nH]c12,T/C,[1],"95, 96, 100 % of control"
same,survivor count,[1],6 of 6
same,T/C,[2],90 and 100 % of control (2×)
same,survivor count,[2],6 of 6
same,survivor count,[5],6 of 6
same,survivor count,[3],6 of 6
same,survivor count,[10],6 of 6
NC(Cc1ccc(N(CCCl)CCCl)cc1)C(=O)O (centres undefined),T/C,[6],140 % of control
same,T/C,[7],136 and 143 % of control
same,T/C,"dose: 8.0 mg/kg/injection, vehicle: other",140 % of control
same,T/C,[13],125 % of control
same,survivor count,[13],6 of 6
same,survivor count,[12],6 of 6
c1ccc(CCSc2ncnc3nc[nH]c23)cc1,survivor count,"dose: 7.8 mg/kg/injection, vehicle: saline",6 of 6
same,survivor count,"dose: 62.5 mg/kg/injection, vehicle: saline",6 of 6
same,survivor count,"dose: 125.0 mg/kg/injection, vehicle: saline",6 of 6
same,survivor count,"dose: 250.0 mg/kg/injection, vehicle: saline",6 of 6
C1CN1c1nc(N2CC2)nc(N2CC2)n1,survivor count,[14],6 of 6
CO[C@H](C(=O)[C@@H](O)[C@@H](C)O)[C@@H]1Cc2cc3cc(OC4CC(OC5CC(O)C(O)C(C)O5)C(O)C(C)O4)c(C)c(O)c3c(O)c2C(=O)[C@H]1OC1CC(OC2CC(OC3CC(C)(O)C(O)C(C)O3)C(O)C(C)O2)C(O)C(C)O1 (some centres undefined),survivor count,[15],9 of 10
CCCCn1cnc2c(=S)nc[nH]c21,survivor count,[16],6 of 6
same,survivor count,"dose: 32.0 mg/kg/injection, vehicle: saline",6 of 6
same,survivor count,"dose: 64.0 mg/kg/injection, vehicle: saline",6 of 6
same,survivor count,"dose: 128.0 mg/kg/injection, vehicle: saline",6 of 6
C[C@H](N)C(=O)N[C@@H]1[C@H]2C(=C(O)C[C@@H](O)[C@@H]2O)C(=O)O[C@@H]1C,T/C,"dose: 300.0 mg/kg/injection, vehicle: saline",125 % of control
O=NN(CCCl)C(=O)NCCCl,T/C,[1],145 % of control
same,survivor count,[2],6 of 6
same,survivor count,[5],4 of 6 and 5 of 6
N#[N+]c1cnc([O-])[nH]c1=O,T/C,[7],125 and 127 % of control
same,T/C,[13],133 and 145 % of control
same,survivor count,[12],3 of 6
COc1cc(-c2ccc(Nc3ccccc3C(=O)O)c(OC)c2)ccc1Nc1ccccc1C(=O)O,T/C,[1],127 % of control
O=c1cnn(C2OC(CO)C(O)C2O)c(=O)[nH]1 (centres undefined),survivor count,"dose: 1600.0 mg/kg/injection, vehicle: saline",6 of 6
CN(C)c1ccc(Nc2c3ccccc3nc3ccccc23)cc1,T/C,[9],129 and 134 % of control
same,survivor count,[4],6 of 6
NC(Cc1c[nH]c2ccc(N(CCCl)CCCl)cc12)C(=O)O (centres undefined),T/C,[14],127 % of control
same,T/C,[15],145 % of control
same,T/C,"dose: 4.0 mg/kg/injection, vehicle: saline",145 % of control
O=C(Nc1ccc(NC2=NCCN2)cc1)c1ccc(C(=O)Nc2ccc(NC3=NCCN3)cc2)cc1,T/C,[16],130 % of control
CS(=O)(=O)OCCCCOS(C)(=O)=O,survivor count,"dose: 6.25 mg/kg/injection, vehicle: saline",6 of 6
same,survivor count,[1],6 of 6
same,survivor count,[2],6 of 6
same,survivor count,[5],6 of 6
CS(=O)(=O)OCC(O)C(O)COS(C)(=O)=O (centres undefined),survivor count,[3],6 of 6
S=P(N1CC1)(N1CC1)N1CC1,T/C,"dose: 1.5 mg/kg/injection, vehicle: saline",125 % of control
same,T/C,"dose: 3.0 mg/kg/injection, vehicle: saline",133 and 145 % of control
CN(C)c1ccc(/C=C\c2ccnc3ccccc23)cc1,survivor count,[17],6 of 6
same,survivor count,[18],6 of 6
same,survivor count,[8],6 of 6
same,survivor count,"dose: 60.0 mg/kg/injection, vehicle: saline",6 of 6
C[n+]1c2ccccc2nc2c(N)cc(N)cc21,T/C,"dose: 12.0 mg/kg/injection, vehicle: saline",135 % of control [5 of 6 alive]
same,T/C,[17],145 % of control
same,survivor count,[18],5 of 6
O=C(O)CCCc1ccc(N(CCCl)CCCl)cc1,survivor count,[1],6 of 6
same,survivor count,[2],0 of 6 and 5 of 6
CS(=O)(=O)OCCCl,survivor count,"dose: 18.8 mg/kg/injection, vehicle: saline",6 of 6
same,survivor count,"dose: 37.5 mg/kg/injection, vehicle: saline",6 of 6
